These are yes or no findings as the source states them, for the method shown. In cells and extracts the contact can be indirect. Some binding calls cover weakened binding; strength is not graded here.
Tests used:
Test in all cases: co-IP
[1] = target: GFP-VP24 (Ebola virus VP24 fused to GFP) (Zaire ebolavirus (EBOV)) (UniProt Q05322)
[2] = target: FLAG-tagged karyopherin alpha-1 (Kα1) (UniProt P52294)
FLAG-tagged STAT3 = FLAG-tagged STAT3 (UniProt P40763)

Protein sequences, listed by entry. Tags and fused reporters are not part of them.
UniProt P52294, whole entry: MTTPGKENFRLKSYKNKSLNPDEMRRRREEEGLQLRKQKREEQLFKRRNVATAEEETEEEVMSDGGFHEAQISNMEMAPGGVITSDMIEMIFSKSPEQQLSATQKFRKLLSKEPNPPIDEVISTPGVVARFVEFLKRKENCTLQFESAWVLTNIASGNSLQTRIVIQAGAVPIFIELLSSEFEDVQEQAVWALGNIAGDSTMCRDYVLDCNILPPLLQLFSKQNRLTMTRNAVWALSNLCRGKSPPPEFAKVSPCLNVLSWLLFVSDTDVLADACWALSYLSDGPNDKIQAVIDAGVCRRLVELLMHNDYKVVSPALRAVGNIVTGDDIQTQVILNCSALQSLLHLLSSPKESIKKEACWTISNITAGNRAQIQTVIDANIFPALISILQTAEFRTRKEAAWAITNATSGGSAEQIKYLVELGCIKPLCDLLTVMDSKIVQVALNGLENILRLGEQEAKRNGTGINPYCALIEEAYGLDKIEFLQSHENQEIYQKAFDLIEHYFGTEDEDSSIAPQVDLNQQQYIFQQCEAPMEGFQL
UniProt P40763, whole entry: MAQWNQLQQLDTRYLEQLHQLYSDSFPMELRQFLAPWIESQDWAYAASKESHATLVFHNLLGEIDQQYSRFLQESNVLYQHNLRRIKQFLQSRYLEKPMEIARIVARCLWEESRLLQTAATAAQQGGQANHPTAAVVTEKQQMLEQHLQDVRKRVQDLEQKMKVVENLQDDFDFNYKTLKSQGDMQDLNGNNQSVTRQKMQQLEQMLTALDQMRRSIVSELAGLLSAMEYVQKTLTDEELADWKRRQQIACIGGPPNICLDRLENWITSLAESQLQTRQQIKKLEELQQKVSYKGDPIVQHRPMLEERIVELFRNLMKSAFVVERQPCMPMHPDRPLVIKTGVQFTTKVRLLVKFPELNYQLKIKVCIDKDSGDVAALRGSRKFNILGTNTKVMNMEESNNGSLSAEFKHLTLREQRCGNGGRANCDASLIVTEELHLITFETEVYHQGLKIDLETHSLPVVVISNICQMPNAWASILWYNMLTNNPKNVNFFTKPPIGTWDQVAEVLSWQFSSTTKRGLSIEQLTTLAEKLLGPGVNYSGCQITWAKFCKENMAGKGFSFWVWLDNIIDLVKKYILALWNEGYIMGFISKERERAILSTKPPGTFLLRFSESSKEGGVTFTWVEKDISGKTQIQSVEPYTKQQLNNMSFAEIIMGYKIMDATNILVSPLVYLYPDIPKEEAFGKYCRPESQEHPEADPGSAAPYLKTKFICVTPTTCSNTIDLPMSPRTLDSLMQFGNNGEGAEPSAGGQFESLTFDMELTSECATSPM

Substance | binding [1] | binding [2] | binding (FLAG-tagged STAT3)
FLAG-tagged STAT3 (from UniProt P40763 1-770) | binds | – | –
GFP-VP24 (Ebola virus VP24 fused to GFP) (from UniProt Q05322 1-251) | – | binds | binds
STAT3, endogenous (human cells) (from UniProt P40763 1-770) | binds | – | –

— publication doi:10.1101/2020.08.10.245464
